From article PMC11189303

Chains of the proteins cited; added tags and fusions are not shown.
UniProt Q8N668: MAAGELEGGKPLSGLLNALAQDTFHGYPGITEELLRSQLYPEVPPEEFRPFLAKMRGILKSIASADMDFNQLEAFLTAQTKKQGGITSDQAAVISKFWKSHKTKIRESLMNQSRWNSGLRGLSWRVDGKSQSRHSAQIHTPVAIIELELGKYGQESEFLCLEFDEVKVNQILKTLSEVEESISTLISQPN
UniProt Q9Y6G5: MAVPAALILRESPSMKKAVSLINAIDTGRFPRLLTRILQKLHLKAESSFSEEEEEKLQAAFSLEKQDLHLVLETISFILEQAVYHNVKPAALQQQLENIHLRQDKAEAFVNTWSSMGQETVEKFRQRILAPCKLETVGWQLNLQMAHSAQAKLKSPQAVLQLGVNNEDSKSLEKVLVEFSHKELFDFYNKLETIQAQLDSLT
UniProt Q86X83: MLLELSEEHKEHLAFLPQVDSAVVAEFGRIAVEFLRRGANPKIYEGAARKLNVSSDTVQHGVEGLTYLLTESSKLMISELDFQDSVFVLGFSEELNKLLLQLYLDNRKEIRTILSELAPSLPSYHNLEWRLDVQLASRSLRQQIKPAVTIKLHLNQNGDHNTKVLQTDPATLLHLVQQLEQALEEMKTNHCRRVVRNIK
UniProt Q8TCE6: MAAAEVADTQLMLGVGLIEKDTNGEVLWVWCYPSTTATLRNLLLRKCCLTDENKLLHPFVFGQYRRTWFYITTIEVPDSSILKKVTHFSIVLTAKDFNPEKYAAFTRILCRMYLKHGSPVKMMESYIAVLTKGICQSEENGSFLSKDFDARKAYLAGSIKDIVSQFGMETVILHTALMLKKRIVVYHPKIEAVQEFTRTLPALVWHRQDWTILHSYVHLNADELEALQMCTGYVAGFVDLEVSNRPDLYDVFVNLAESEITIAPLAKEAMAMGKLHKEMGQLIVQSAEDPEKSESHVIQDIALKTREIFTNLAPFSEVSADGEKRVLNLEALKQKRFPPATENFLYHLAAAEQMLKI
UniProt O60826: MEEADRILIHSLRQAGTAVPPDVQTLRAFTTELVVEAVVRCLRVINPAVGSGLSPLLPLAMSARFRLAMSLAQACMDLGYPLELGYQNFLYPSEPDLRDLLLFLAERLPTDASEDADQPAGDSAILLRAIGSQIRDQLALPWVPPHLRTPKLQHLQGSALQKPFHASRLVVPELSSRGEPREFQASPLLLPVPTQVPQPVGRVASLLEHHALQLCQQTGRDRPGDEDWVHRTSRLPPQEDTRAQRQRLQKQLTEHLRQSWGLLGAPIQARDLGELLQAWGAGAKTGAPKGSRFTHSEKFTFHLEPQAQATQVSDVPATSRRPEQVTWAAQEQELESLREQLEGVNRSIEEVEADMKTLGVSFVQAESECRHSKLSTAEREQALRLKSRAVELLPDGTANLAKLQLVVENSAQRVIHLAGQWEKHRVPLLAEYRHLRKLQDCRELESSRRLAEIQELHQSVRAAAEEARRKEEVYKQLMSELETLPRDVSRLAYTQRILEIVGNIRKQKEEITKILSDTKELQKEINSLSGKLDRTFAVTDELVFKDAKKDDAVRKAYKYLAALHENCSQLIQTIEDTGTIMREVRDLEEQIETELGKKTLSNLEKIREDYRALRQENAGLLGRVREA
UniProt Q567U6: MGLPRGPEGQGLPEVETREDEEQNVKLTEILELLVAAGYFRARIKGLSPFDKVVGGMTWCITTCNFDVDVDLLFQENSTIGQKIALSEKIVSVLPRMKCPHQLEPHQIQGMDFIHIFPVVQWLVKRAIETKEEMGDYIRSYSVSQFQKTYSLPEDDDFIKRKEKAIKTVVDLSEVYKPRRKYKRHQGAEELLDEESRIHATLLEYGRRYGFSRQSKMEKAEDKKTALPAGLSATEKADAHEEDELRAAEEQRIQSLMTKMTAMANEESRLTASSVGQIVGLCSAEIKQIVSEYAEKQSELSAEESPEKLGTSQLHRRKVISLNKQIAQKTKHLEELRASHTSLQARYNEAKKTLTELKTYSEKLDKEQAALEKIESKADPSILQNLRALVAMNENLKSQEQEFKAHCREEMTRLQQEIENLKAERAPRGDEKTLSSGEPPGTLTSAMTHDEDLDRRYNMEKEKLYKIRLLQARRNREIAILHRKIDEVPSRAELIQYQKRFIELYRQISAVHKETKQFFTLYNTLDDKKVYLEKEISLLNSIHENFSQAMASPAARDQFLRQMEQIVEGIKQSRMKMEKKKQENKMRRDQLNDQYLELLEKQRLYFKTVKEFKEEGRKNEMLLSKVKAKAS

Tests used:
COMMD1 (human) = COMMD1 (human) (UniProt Q8N668); assay: proximity labelling; BioID–MS: MAC-tagged (BirA*) bait in Flp-In T-REx 293, tetracycline and 50 μM biotin 24 h; lysis with 0.1% SDS and benzonase, Strep-Tactin beads; high-confidence interactions by SAINTexpress and CRAPome
COMMD10 (human) = COMMD10 (human) (UniProt Q9Y6G5); assay: as above
COMMD2 (human) = COMMD2 (human) (UniProt Q86X83); assay: as above
COMMD9 (human) = COMMD9 (human) (UniProt Q9P000); assay: as above
[1] = target: DENN domain-containing protein 10 (human) (UniProt Q8TCE6); assay: as above
VPS26C (human) = VPS26C (human) (UniProt O14972); assay: as above
VPS35L (human) = VPS35L (human) (UniProt Q7Z3J2); assay: as above
CCDC22 (human) = CCDC22 (human) (UniProt O60826); assay: affinity purification with mass spectrometry; MAC-tagged bait stably expressed in Flp-In T-REx 293 (tetracycline 24 h); cleared lysate (50 mM HEPES pH 8.0, 150 mM NaCl, 0.5% IGEPAL) on Strep-Tactin beads, eluted with biotin; high-confidence interactions by SAINTexpress (BFDR < 0.05) and CRAPome against MAC-tagged GFP controls
CCDC93 (human) = CCDC93 (human) (UniProt Q567U6); assay: as above
[2] = target: DENN domain-containing protein 10 (human) (UniProt Q8TCE6); assay: as above

Measured: binding

B1: TPGS1 (protein, UniProt Q6ZTW0 1-290)
chain: MAAVEKRRQAVPPPAGFTDSGRQSVSRAAGAAESEEDFLRQVGVTEMLRAALLKVLEARPEEPIAFLAHYFENMGLRSPVNGGAGEPPGQLLLQQQRLGRALWHLRLAHHSQRAAFNNNVSVAYECLSAGGRRKRPGLDGRTYSELLRRICRDGQAPEEVVAPLLRKVQCRDHEAVPLSVFRAGTLTCFVLLEFVARAGALFQLLEDSAAAVADRRVGQAVLDTLEGALQASDAAAPARFLEAGSRLGPDSLALALDRAVGGRRPSAPMTREEFLERAAALFIAKVKPVG
not listed: CCDC22 (human) | CCDC93 (human) | [2]
binds: all other assays above

B2: LRRC49 (protein, UniProt Q8IUZ0 1-686)
chain: MIPGKYRSVSGRAANNVNCGLHLVIQTSSLPEKNKVEFKLNKDTSSFPGRLLQHDLERNYSSRQGDHINLVSSSLSSFPILQRSSEEKILYSDRLSLERQKLTVCPIINGEDHLRLLNFQHNFITRIQNISNLQKLISLDLYDNQIEEISGLSTLRCLRVLLLGKNRIKKISNLENLKSLDVLDLHGNQITKIENINHLCELRVLNLARNFLSHVDNLNGLDSLTELNLRHNQITFVRDVDNLPCLQHLFLSFNNISSFDSVSCLADSSSLSDITFDGNPIAQESWYKHTVLQNMMQLRQLDMKRITEEERRMASVLAKKEEEKKRESHKQSLLKEKKRLTINNVARQWDLQQQRVANIATNEDRKDSDSPQDPCQIDGSTLSAFPEETGPLDSGLNNALQGLSVIDTYLVEVDGDTLSLYGSGALESLDRNWSVQTAGMITTVSFTFIEFDEIVQVLPKLKIKFPNSLHLKFKETNLVMLQQFNALAQLRRIDQLTIDPQGNPVVNFTLWKYYVLFRLSHFSMQKINGTEVTQNDMIMAERLFGILAHVASSELPQYRLISILGDARKKQFRYLLESKGKKPGIINEENNDSKRLVGENTNRATLNYTTRDFYNEKLEEIKEKKKFCKTYIEDLVKEATEINMKNEALQKLWPQMFIELVRDAVIEIRNKNSYMKLCLQQITDQK
binds: COMMD2 (human) | COMMD9 (human) | VPS26C (human) | VPS35L (human)

B3: WASHC1 homolog WASH6P (protein, UniProt Q9NQA3 1-447)
chain: MAFHEMQAHKNALGTSGEQQAADITGPTPHQGGWKQVEQSRSQVQAIGEKVSLAQAKIEKIKGSKKAIKVFSSAKYPAPERLQEYGSIFTGAQDPGLQRRPRHRIQSKHRPLDERALQEKLKDFPVCVSTKPEPEDDAEEGLGGLPSNISSVSSLLLFNTTENLYKKYVFLDPLAGAVTKTHVMLGAETEEKLFDAPLSISKREQLEQQVPENYFYVPDLGQVPEIDVPSYLPDLPSIANDLMYSADLGPGIAPSAPGTIPELPTFHTEVAEPLKADLQDGVLTPPPPPPPPPPAPEVLASAPPLPPSTAAPVGQGARQDDGSSSASPSVQGAPREVVDPSGGWATLLESIRQAGGIGKAKLRSMKERKLEKKKQKEQEQVRATSQGGHLMSDLFNKLVMRRKGISGKGPGAGEGPGGAFARVSDSIPPVPPPQQPQAEEDEDDWES
binds: CCDC22 (human) | CCDC93 (human) | [2]

B4: FKBP5 (protein, UniProt Q13451 1-457)
chain: MTTDEGAKNNEESPTATVAEQGEDITSKKDRGVLKIVKRVGNGEETPMIGDKVYVHYKGKLSNGKKFDSSHDRNEPFVFSLGKGQVIKAWDIGVATMKKGEICHLLCKPEYAYGSAGSLPKIPSNATLFFEIELLDFKGEDLFEDGGIIRRTKRKGEGYSNPNEGATVEIHLEGRCGGRMFDCRDVAFTVGEGEDHDIPIGIDKALEKMQREEQCILYLGPRYGFGEAGKPKFGIEPNAELIYEVTLKSFEKAKESWEMDTKEKLEQAAIVKEKGTVYFKGGKYMQAVIQYGKIVSWLEMEYGLSEKESKASESFLLAAFLNLAMCYLKLREYTKAVECCDKALGLDSANEKGLYRRGEAQLLMNEFESAKGDFEKVLEVNPQNKAARLQISMCQKKAKEHNERDRRIYANMFKKFAEQDAKEEANKAMGKKTSEGVTNEKGTDSQAMEEEKPEGHV
binds: CCDC93 (human) | [2]

Results are given in words; binding and its absence hold for the method and conditions named. Binding seen in cells or lysates may run through a third protein. A yes stands for co-enrichment or nearness to the bait. Other partners may have been found.
